PMC11372114
These are yes or no findings as the source states them, for the method shown. Binding seen in cells or lysates may run through a third protein. Some entries that bind do so weakly or less than the wild type.

Chains of the proteins cited; added tags and fusions are not shown.
UniProt Q9QXD8: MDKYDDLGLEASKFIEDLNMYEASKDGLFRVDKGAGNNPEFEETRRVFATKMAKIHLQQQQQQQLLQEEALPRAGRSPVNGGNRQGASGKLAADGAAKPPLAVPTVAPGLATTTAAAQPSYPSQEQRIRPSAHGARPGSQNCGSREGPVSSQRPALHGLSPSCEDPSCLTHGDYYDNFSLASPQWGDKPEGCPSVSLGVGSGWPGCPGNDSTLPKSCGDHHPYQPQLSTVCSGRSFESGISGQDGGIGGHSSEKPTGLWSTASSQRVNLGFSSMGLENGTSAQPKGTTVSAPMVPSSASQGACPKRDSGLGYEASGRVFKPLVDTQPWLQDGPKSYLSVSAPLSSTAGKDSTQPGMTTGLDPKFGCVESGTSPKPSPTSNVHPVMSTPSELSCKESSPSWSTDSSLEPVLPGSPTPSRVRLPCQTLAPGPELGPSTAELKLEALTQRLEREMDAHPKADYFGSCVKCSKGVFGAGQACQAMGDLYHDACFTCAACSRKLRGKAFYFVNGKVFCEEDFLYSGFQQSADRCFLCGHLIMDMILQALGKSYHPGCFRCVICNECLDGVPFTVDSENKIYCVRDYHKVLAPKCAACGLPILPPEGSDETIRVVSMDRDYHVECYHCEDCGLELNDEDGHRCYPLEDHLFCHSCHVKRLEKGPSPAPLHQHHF

Molecular target: T1, large tumor suppressor 1 (LATS1) kinase (mouse (endogenous in mouse liver macrophages)) (UniProt Q8BYR2)
T1 sequence: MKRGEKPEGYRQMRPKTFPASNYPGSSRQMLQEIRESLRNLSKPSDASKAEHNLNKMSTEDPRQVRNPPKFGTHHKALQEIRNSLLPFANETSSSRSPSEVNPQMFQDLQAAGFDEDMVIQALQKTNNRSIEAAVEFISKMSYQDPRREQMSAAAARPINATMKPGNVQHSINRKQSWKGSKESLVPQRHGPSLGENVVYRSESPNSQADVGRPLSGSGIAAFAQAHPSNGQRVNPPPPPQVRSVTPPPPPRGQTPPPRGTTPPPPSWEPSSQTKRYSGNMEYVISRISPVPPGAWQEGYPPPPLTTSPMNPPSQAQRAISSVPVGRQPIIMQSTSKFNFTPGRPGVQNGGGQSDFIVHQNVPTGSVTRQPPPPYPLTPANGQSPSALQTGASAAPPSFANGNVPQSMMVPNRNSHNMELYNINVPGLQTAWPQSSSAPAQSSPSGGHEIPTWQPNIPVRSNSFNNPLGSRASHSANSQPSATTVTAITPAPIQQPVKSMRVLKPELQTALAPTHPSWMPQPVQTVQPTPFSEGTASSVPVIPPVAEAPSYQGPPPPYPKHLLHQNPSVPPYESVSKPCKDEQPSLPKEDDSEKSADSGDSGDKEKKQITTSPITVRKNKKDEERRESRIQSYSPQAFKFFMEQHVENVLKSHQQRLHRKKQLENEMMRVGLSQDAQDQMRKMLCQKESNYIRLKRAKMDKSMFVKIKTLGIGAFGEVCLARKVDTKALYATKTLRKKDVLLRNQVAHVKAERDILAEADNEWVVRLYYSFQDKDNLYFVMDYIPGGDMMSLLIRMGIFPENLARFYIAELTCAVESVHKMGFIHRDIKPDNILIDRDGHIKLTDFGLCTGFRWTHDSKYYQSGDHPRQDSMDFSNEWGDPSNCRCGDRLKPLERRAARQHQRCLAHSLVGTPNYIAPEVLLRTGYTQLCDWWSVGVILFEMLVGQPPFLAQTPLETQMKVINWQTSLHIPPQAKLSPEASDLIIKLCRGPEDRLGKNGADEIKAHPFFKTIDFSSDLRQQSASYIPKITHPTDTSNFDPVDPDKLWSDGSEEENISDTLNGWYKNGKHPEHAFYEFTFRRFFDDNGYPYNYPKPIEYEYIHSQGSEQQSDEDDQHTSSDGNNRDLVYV
Assay: co-IP; immunoprecipitation from liver macrophages of WT mice, with or without 0.2 mM PA and 0.4 mM OA for 24 h; immunoblot; precipitating antibody not stated

“LIM domain-containing protein 1 (LIMD1) (from UniProt Q9QXD8 1-668)” was tested, and the binding was “binds”.
